# PubChem BioAssay AID504808 – Drosophila RNAi Screening Center | 2011
# Assay: 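Fly genes required to hold E2F transcription in check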 (primary screen)
# Cells: Drosophila S2 cells
# Reagents: long dsRNA against Drosophila genes
# Read-out: 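Firefly luciferase driven by E2F sites, normalised to Renilla luciferase on the same minimal promoter, measured by plate reader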
# Direction: E2F firefly: higher = more E2F reporter activity; Renilla normaliser: higher = more normaliser reporter signal
# Hit rule: 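Called active if the normalised E2F reporter went up by over 50%; the cutoff is arbitrary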
# In all, the deposit lists about 21,000 reagents; this is an unselected part of those with a known target gene and a result. Of all reagents, 18 (0.084%) were called active. 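Raw counts without plate normalisation, one of two replicates; the ratio scores behind the calls were not deposited.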 Unmarked entries are inactive. A plus sign joins genes that one reagent is predicted to hit. Reagent sequences are not shown. Not stated in the record: the amount of reagent, the time to read-out.
Gene,DRSC id,"E2F firefly, rep 1","Renilla normaliser, rep 1"
CG8750,DRSC11037,1.28e5,6242
CG11257,DRSC06068,1.43e5,5069
Diedel,DRSC14317,1.18e5,5708
CG18788,DRSC02697,92530,4031
Hex-t1 (Hexokinase testis 1),DRSC16701,1.03e5,6039
Fmo-2 (Flavin-containing monooxygenase 2),DRSC04983,80977,3610
Nprl2 (Nitrogen permease regulator-like 2),DRSC20153,1.45e5,5826
Vti1b (Vesicle transport through interaction with t-SNAREs 1b),DRSC16283,79702,4333
Vti1b (Vesicle transport through interaction with t-SNAREs 1b),DRSC16284,1.25e5,6855
CG13699,DRSC10048,1.62e5,8063
Lsp1gamma (Larval serum protein 1 gamma),DRSC08672,72446,3502
Ack (Activated Cdc42 kinase),DRSC08135,95542,3964
CG42557 + CG42558,DRSC13963,83750,2995
CG42557 + CG42558,DRSC16329,1817,896
CG12637,DRSC17845,1.10e5,5113
CG42331,DRSC14633,50510,3790
CG42331,DRSC16126,1.01e5,4862
Sps2 (Selenophosphate synthetase 2),DRSC03441,1.47e5,4676
t-cup (tetleys-cup),DRSC01254,94708,6088
CG31510,DRSC14182,1.21e5,6579
CG4839,DRSC02783,75692,3466
CG4839,DRSC02784,1.52e5,4874
mRpL48 (mitochondrial ribosomal protein L48),DRSC00506,1.71e5,5893
Pdha (Pyruvate dehydrogenase E1 alpha subunit),DRSC18413,1.14e5,5743
CheA84a (Chemosensory protein A 84a),DRSC12669,76948,3590
CG9760,DRSC11101,1.30e5,6542
"foxo (forkhead box, sub-group O)",DRSC13017,53988,2967
"foxo (forkhead box, sub-group O)",DRSC15463,73346,3275
CG11663,DRSC17793,59120,3630
side (sidestep),DRSC14523,1.15e5,6360
side (sidestep),DRSC14716,1.12e5,5781
side (sidestep),DRSC14717,1.09e5,6096
side (sidestep),DRSC14718,1.10e5,5730
side (sidestep),DRSC14721,1.13e5,5669
Qtzl (Quetzalcoatl),DRSC01221,1.32e5,6834
Polr3I (RNA polymerase III subunit I),DRSC19922,1.73e5,6058
CG42402,DRSC21116,1.34e5,6642
CG32428,DRSC11697,69230,3223
CG32428,DRSC11768,1.40e5,6589
Syx17 (Syntaxin 17),DRSC08591,82507,3879
CG14419,DRSC17916,1.24e5,5744
CG34276,DRSC15811,1.14e5,5998
Ir51b (Ionotropic receptor 51b),DRSC05540,1.33e5,5576
Ssrp (Structure specific recognition protein),DRSC04658,70504,3324
Cyp6d2 (Cytochrome P450 6d2),DRSC04606,90298,4080
CG13228,DRSC06348,92377,3860
CG10621,DRSC02078,98408,4517
CG9184,DRSC08636,93889,4262
Dyro (Dpt-YFP repressor by overexpression),DRSC10598,1.08e5,6256
Best4 (Bestrophin 4),DRSC10792,1.79e5,9072
Cby (Chibby),DRSC14591,1.37e5,7978
kon (kon-tiki),DRSC02033,85503,3348
Mi-2,DRSC11222,1.10e5,6035
ldd (lipid droplet defective),DRSC20558,1.45e5,5324
CG12948,DRSC14576,1.41e5,6678
CG3339,DRSC13821,79390,2368
CG3339,DRSC15479,1.11e5,6429

Limited to “E2F firefly, rep 1”, for 7 of the entries above:
CheA84a (Chemosensory protein A 84a) [DRSC12669]	76948
CG9760 [DRSC11101]	1.30e5
foxo (forkhead box, sub-group O) [DRSC13017]	53988
foxo (forkhead box, sub-group O) [DRSC15463]	73346
CG11663 [DRSC17793]	59120
side (sidestep) [DRSC14523]	1.15e5
side (sidestep) [DRSC14716]	1.12e5
